In patent US20130309233A1:
Results are given in words; binding and its absence hold for the method and conditions named. Some entries that bind do so weakly or less than the wild type.

B1: A6 (antibody, IgG1, V domains shown)
VH: QVQLVQSGAEVKKPGSSVKVSCKASGGTFRNHAFSWVRQAPGQGLEWMGWISAYNGYTHYAEKLQGRVTMTTDTSTSTAYMELRSLRSDDTAVYYCARVSASYNSDWSLHYYYGMDVWGQGTTVTVSS
VL: QSVLTQPPSVSAAPGQEVTISCSGSNSNIGNNYVSWYQQLPGTAPKLLIYDNNERPSGIPDRFSGSKSGTSATLGITGLQTGDEADYYCGTWDSSLSAGVFGGGTKLTVL
B2: B4 (antibody, IgG1, V domains shown)
VH: QVQLVQSGAEVKKPGSAVKVSCKASGGTFSSYAISWVRQAPGQGLEWMGGIIPILGTADYAQKFQGRVTITADESTSTAYMELSSLRSEDTAVYYCARDEIPLEYCTSTSCYHAFDIWGQGTMVTVSS
VL: NIQMTQSPPSLSAFVGDRVTITCQASQAINNYLNWYQQKPGKAPKLLIYDASNLETGVPSRFSGSGSGTDFTFTISSLQPEDNATYYCQQYDKLPLTFGGGTKVEIK
B3: B5 (antibody, IgG1, V domains shown)
VH: QMQLVQSWAEVKKPGASVKVSCKASAYTFTNYYIHWVRQAPGQGLEWMGIINPSSGATTYAQRLQGRVIMTRDTSTSTVNMELSSLRSEDTAVYYCARSTLWFSEFDYWGQGTLVTVSS
VL: QSVLTQPASVSGSPGQSITISCTGTTSDVGGFNYVSWYQQHPGKVPKLIIFDVSNRPSSVSDRFSGSKSVNTASLTISGLQAEDEADYYCSSYTDSGSYIFGTGTKVTVL

Biological target: soluble EGFR (UniProt P00533)
Assay: binding of purified IgG to soluble EGFR, method not detailed

binding, binds:
B1
B2
B3
